Measurements as given in the supplement of paper PMC5949888.
Most values lie at the floor of the assay. Slopes are relative: functional sequences can read slightly below zero.

Each substance was assayed on Saccharomyces cerevisiae PS128 hsf1 delta, HSF1(1-493) fusion (assay: growth estimate (transactivation domain function in HSF1 fusion, heat-shock survival) (a.u. (slope of normalised read count over time)); higher = stronger growth at 37°C, i.e. more transactivation activity). Conditions: library: random library.

Substance	growth estimate
IRLRHIESRCEGTGQ	-0.248
IRLTAEAWLLPVDVGITGQR	< -0.25
IRMASP	< -0.25
IRNMPLGETRSRRSGGP	< -0.25
IRNPL	< -0.25
IRPASLARLRGGTRSSSTSA	< -0.25
IRPGLDGLVVWQGSQRLDEL	< -0.25
IRPLCNRCAERIRW	< -0.25
IRPQDL	< -0.25
IRQQVTSVLYHCLGLGAIWG	< -0.25
IRQVS	< -0.25
IRQYR	< -0.25
IRRCGPDAYYRLSVPRTC	< -0.25
IRRCRLRGGSFFHVVSLLRV	< -0.25
IRRDLPPGPGYPSLRGAIST	< -0.25
IRRLWKTR	< -0.25
IRRPFSPDRGLLAWYLEICV	< -0.25
IRRSIPDRPG	< -0.25
IRRTVSLGGGCTSRN	< -0.25
IRSAHTAEFVGPSWSMCSGH	< -0.25
IRSDALADHRVSRDVSCTGT	< -0.25
IRSSLHRRA	< -0.25
IRSVP	< -0.25
IRTFAYPSGRS	< -0.25
IRVGQRPQTGSADAANWQCS	< -0.25

Substance	growth estimate
IRVNN	< -0.25
IRYCRRVAYRKGLSLRRLTH	< -0.25
ISACCATYGCLYTSSNYLTL	-0.218
ISAFPLPEECCVLTGSSHQD	< -0.25
ISDEHNGTVPN	< -0.25
ISDERKGTFAPSSHVPVNSR	< -0.25
ISGGGPKAPVAVNNGIVPFI	< -0.25
ISGYAPHMHRTEARGRHVRR	< -0.25
ISGYFGNPHALLKKARCA	< -0.25
ISHMRKTTTMYTYISSSM	< -0.25
ISHRTRFVCSL	< -0.25
ISIAVPTRDRRIWSLRIWST	< -0.25
ISIMRAPRVRPTP	< -0.25
ISIRPMFFSDGYTDYWVRAH	< -0.25
ISIRYPVITRIILSGYRG	< -0.25
ISKDSWATSLSKAVSHGR	< -0.25
ISKGLRLGSILARREPRAAC	-0.248
ISKRPERPVSECRGFS	< -0.25
ISLAENSV	< -0.25
ISNFPVFRPFGNRSNCRPEG	-0.245
ISNGRYVGDHRVGPIAG	< -0.25
ISNSTAK	< -0.25
ISPLGTPDVSV	< -0.25
ISRPLSTL	-0.243
ISRPNGGWASRCADARGVIS	< -0.25

Part of the list above, as comma-separated lines.
Substance,growth estimate
IRMASP,< -0.25
IRNMPLGETRSRRSGGP,< -0.25
IRNPL,< -0.25
IRPASLARLRGGTRSSSTSA,< -0.25
IRPGLDGLVVWQGSQRLDEL,< -0.25
IRPLCNRCAERIRW,< -0.25
IRPQDL,< -0.25
IRQQVTSVLYHCLGLGAIWG,< -0.25
IRQVS,< -0.25
IRQYR,< -0.25
IRRCGPDAYYRLSVPRTC,< -0.25
IRRCRLRGGSFFHVVSLLRV,< -0.25
IRRDLPPGPGYPSLRGAIST,< -0.25
IRRLWKTR,< -0.25
IRRPFSPDRGLLAWYLEICV,< -0.25
IRRSIPDRPG,< -0.25
IRRTVSLGGGCTSRN,< -0.25
IRSAHTAEFVGPSWSMCSGH,< -0.25
IRSDALADHRVSRDVSCTGT,< -0.25
IRSSLHRRA,< -0.25
IRSVP,< -0.25
IRTFAYPSGRS,< -0.25
IRVGQRPQTGSADAANWQCS,< -0.25
IRVNN,< -0.25
IRYCRRVAYRKGLSLRRLTH,< -0.25
ISACCATYGCLYTSSNYLTL,-0.218
ISAFPLPEECCVLTGSSHQD,< -0.25
ISDEHNGTVPN,< -0.25
ISDERKGTFAPSSHVPVNSR,< -0.25
ISGGGPKAPVAVNNGIVPFI,< -0.25
ISGYAPHMHRTEARGRHVRR,< -0.25
ISGYFGNPHALLKKARCA,< -0.25
ISHMRKTTTMYTYISSSM,< -0.25
ISHRTRFVCSL,< -0.25
ISIAVPTRDRRIWSLRIWST,< -0.25
ISIMRAPRVRPTP,< -0.25
ISIRPMFFSDGYTDYWVRAH,< -0.25
ISIRYPVITRIILSGYRG,< -0.25
ISKDSWATSLSKAVSHGR,< -0.25
ISKGLRLGSILARREPRAAC,-0.248
ISKRPERPVSECRGFS,< -0.25
ISLAENSV,< -0.25
ISNFPVFRPFGNRSNCRPEG,-0.245
ISNGRYVGDHRVGPIAG,< -0.25
ISNSTAK,< -0.25
ISPLGTPDVSV,< -0.25

More results follow:

Substance	growth estimate
ISRVRGVLLLYWTYGLKSLP	< -0.25
ISSVWYWFLRRVFQLRNGHT	< -0.25
ISTGRRSAPAAG	< -0.25
ISTMI	< -0.25
ISTSVRSYRNGHVPRSPIR	< -0.25
ISVE	< -0.25
ISVFGRKLCWRRATACTR	< -0.25
ISYNPCEGGTRSKKNGVVSN	< -0.25
ITELNEQVPK	< -0.25
ITFPRVTVHGGRVRGGTAHV	< -0.25
ITGSGDFVVRRA	< -0.25
ITHTFMWKLTMRGDPFCTLF	< -0.25
ITLGSPVIFDAGYCCPDSTC	< -0.25
ITPSAT	< -0.25
ITRGRSA	< -0.25
ITRPRSYCSHQGAHEQTLTP	< -0.25
ITSSELI	< -0.25
ITSWQRRFRIGA	< -0.25
ITV	< -0.25
ITVCNANLYQWPRGDC	< -0.25
ITVEERRVRYL	< -0.25
ITVIHGEPGT	< -0.25
ITVQALMCFSQRLAQRFIGH	-0.246
ITWSPLWGERLHC	< -0.25
ITYLRVVPLTYLESMSPRVA	< -0.25

Substance	growth estimate
IVADKEA	< -0.25
IVAIYARFTVYVGPDQRARR	< -0.25
IVASPLMGGGQRED	< -0.25
IVC	< -0.25
IVCL	< -0.25
IVDSRGVIAKC	< -0.25
IVEFI	< -0.25
IVFS	< -0.25
IVGILSLAYGRCAGTLPQHG	< -0.25
IVGKWIVYI	< -0.25
IVGLDAGGRTDDLSGP	< -0.25
IVGLLIVYHVPIARVKHTRD	< -0.25
IVGMRLLKHCYSWRRTMSLP	< -0.25
IVGRGLKTGYSRGFSLERY	< -0.25
IVIGSIVVAFTSPCRYRSCH	< -0.25
IVILQVRGA	< -0.25
IVIPRAFQGYFPTTRALFMG	< -0.25
IVK	< -0.25
IVKKYPEGRLHVLLIPGVTM	< -0.25
IVLLLVPIRSASIPPKMATR	< -0.25
IVNSCSSVRNPACSSFASGS	< -0.25
IVPRVMPARPVRMV	< -0.25
IVQLEYSAPVHQRLGRGGKP	< -0.25
IVRGPAEKGPYREVNVLVPP	< -0.25
IVRHTERTDCGGLLNFPRAS	< -0.25

Substance	growth estimate
IVRNFG	< -0.25
IVRV	< -0.25
IVRVGLARAVDLSLRGP	< -0.25
IVSHSYVSESQLAVSTRTVL	< -0.25
IVSPRHLLKGSVDNRFASFP	< -0.25
IVSSKQVRERN	< -0.25
IVTGLMVMSAPRHPCICGGV	< -0.25
IVTTTTMLPGMALVWSEPNI	< -0.25
IVVRRVSMLDSSLRPQLRLR	< -0.25
IVWADVGSVLM	< -0.25
IVYNV	< -0.25
IWGKFWTV	< -0.25
IWLA	< -0.25
IWLIWGVPTVPAR	< -0.25
IWLTRKCIGVFKR	< -0.25
IWSSNKITSGMSDASAV	< -0.25
IWSVEGSGSGDVREA	< -0.25
IWVDQCTHVRLYWIFWVLLN	< -0.25
IWVQSNA	< -0.25
IWYC	< -0.25
IYD	< -0.25
IYGVR	< -0.25
IYLCEMLVW	< -0.25
IYLFTIRGSTVLELQQTGRF	< -0.25
IYLRLRLLPAL	< -0.25

Substance	growth estimate
IYLSALELVG	< -0.25
IYMGASGGVWF	< -0.25
IYSWALRRCSGLDLQNKLRG	< -0.25
IYTGNGTPPRGGPVYLRHGL	< -0.25
IYVSGKVPSKIVAEINVGIP	< -0.25
IYVVWGSHNQVS	-0.246
KAARDWLQQLVKIRAHPQLE	< -0.25
KADSDRVRLSSREPSNMCDG	< -0.25
KAFESASRRGVFARNTLCGI	< -0.25
KAG	< -0.25
KAINCEFSVAIKLPFGG	< -0.25
KALCFFGIIARCASAWTRT	< -0.25
KALGFSEPRQVNPDRIDIEA	< -0.25
KALKLLHSLGL	< -0.25
KAP	< -0.25
KARAHGVRENRRGDRLGTRF	< -0.25
KARR	< -0.25
KATRVRVVSVSGCSTLALFI	< -0.25
KAYCVSLGL	< -0.25
KCADPVFLCQLGWCRHFTRG	< -0.25
KCALGHKGLMPAPKPTEWG	< -0.25
KCFLQVGSRLAAPGER	< -0.25
KCGASFETNRVGRHLAIFVR	< -0.25
KCGRSRLCLVLSAAFRTLCV	< -0.25
KCGSSC	< -0.25

Substance	growth estimate
KCHSR	< -0.25
KCKQGEGGSRFFWTVTESGE	< -0.25
KCKVPPEPSNEIFHALRSRQ	< -0.25
KCLVLGYQHLTVKIIPKLTR	< -0.25
KCPAVSRQSARIWRRSD	< -0.25
KCPS	< -0.25
KCRCRTESTTILGRPSMPSA	< -0.25
KCRGVQTCCTGANEEARYSR	< -0.25
KCRWVCSSGIFSIFVILCDE	< -0.25
KCSGAYLVRVCRYLGGGLFG	< -0.25
KCSRDFSHLAVLTRSVPHFR	< -0.25
KCWRDRKGPGCPT	< -0.25
KCY	< -0.25
KCYGGLLAIVMVPYWKYARA	< -0.25
KDAGNKQSAPKSLWRREDVH	< -0.25
KDGFRRVRKGQLKFKSTHQL	< -0.25
KDGR	< -0.25
KDHLSEPGSLNGLLLHSLVI	< -0.25
KDKGRRRPLRTWGKVGNLHW	< -0.25
KDL	< -0.25
KDLSVSCE	< -0.25
KDRGRKASFTRTAQTLDPPE	< -0.25
KDRLQTFFGRSESFHRV	< -0.25
KDRVCVVVCRSEEAF	< -0.25
KDVRQHRGCGSANGPWKPQG	< -0.25

Substance	growth estimate
KDVYS	< -0.25
KDWA	< -0.25
KDWKRGWTKELIRHLGRTGK	< -0.25
KEADHPIGRIGGDP	-0.246
KEAPNIRWT	< -0.25
KEEGPW	-0.243
KEGFSKHRRNNCGLTREH	< -0.25
KEGGCSTEKLTWRNIAAK	< -0.25
KEGSSGSRSWLPLLLIITNP	< -0.25
KEHGGRSARRVCLIVKQPH	< -0.25
KELTRDKSPSWGSVWIISCS	< -0.25
KELVVSFASAPSKGGRRAQA	< -0.25
KEPHHGKICARNWPTVHSKY	< -0.25
KESFHTEGNRAESAHRAGDV	< -0.25
KESKPIAGGVYLHVCGMIRW	< -0.25
KEWGGHGVSP	< -0.25
KFAKFYTLKNAA	< -0.25
KFGIAEPLPRLEERSVSLSF	< -0.25
KFGIRLDP	< -0.25
KFGVSKYDDSYLLSTTFGTV	< -0.25
KFIITSAWALHK	< -0.25
KFLLSFAINNRES	< -0.25
KFMPRLHATPKNRPRN	< -0.25
KFNEFDVSDNVYVNLAPCQA	-0.248
